Library screening results

Amino acid sequences for entries named in this document (tags omitted).
UniProt E9BF75, entry or part of it: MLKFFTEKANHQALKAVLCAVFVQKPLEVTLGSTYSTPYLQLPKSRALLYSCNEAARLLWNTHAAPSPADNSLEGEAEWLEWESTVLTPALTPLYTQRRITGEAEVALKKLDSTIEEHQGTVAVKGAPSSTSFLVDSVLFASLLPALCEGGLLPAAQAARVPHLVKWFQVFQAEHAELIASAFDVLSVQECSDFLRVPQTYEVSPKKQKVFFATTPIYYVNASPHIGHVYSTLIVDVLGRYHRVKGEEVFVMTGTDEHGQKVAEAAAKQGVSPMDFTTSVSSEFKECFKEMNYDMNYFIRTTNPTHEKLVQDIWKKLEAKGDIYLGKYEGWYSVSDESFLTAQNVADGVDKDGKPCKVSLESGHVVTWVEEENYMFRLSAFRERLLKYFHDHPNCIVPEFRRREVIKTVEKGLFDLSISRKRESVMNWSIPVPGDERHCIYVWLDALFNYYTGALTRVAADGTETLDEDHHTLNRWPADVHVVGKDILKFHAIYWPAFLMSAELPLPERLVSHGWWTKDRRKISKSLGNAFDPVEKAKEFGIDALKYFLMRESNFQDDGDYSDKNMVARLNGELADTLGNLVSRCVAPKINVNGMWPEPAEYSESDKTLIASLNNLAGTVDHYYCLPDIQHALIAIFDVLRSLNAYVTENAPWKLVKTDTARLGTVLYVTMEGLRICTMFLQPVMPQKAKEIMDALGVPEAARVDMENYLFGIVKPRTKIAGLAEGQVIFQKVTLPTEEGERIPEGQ

Data taken from ChEMBL document CHEMBL3988442, “University of Dundee, Small-Polar-MMV Screening Library” (2021).

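Primary screen of methionyl-tRNA synthetase; the read-out is not stated. Target: Methionyl-tRNA synthetase (putative), Leishmania donovani (UniProt E9BF75). The test concentration is not given. Values are per cent inhibition. Size under these conditions: about 68,000 compounds, about 24 of them at 50% or above in at least one test.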

All values are in %.
The controls that fix the scale are not given in the record; negative values are as filed.
This is an unselected part of the compounds tested.

With COCCN1CCCN(C(=O)NC(C)Cn2ccnc2)CC1 (stereo not shown) the screen gave 15.68%. For Cc1cc(CN2CCC(CNC(=O)CN3CCCCCC3)C2)[nH]n1 (stereo not shown) the result was 3.093%. For CCc1ccc(CN2C[C@H](OCC(=O)N(C)C)[C@H]3COC[C@H]32)o1 the result was 13.11%. Cc1cc(NCc2cccc(C#N)c2)ccc1C(N)=O gave 14.48%. For c1ccc(Cc2noc(-c3ccc(NCC4CCCOC4)nc3)n2)cc1 (stereo not shown) the result was -1.905%. Cc1cc(C)n(-c2ccc3nnc(C)n3n2)n1 read 1.072%. CN(C(=O)CSc1ncc[nH]1)C1CC1 read 19.2%.

For CCc1cnc(CN(C(C)=O)C2CCN(CCc3cnn(C)c3)C2)o1 (stereo not shown) the result was 9.449%. CC1CN(c2ncnc3c2cnn3C)CCN1c1nccs1 (stereo not shown) gave 7.619%. With COc1ccc(C(CO)NC(=O)Nc2cccc(C#N)c2)cc1 (stereo not shown) the screen gave 7.609%. COc1ccc(-c2n[nH]cc2CN(C)CCC2CCOCC2)cc1F gave 7.035%. Result for N#Cc1ccccc1N1CCN(C(=O)NCCN2CCOCC2)CC1 was 13.74%. With Cc1cc(C(=O)N2CCO[C@H]3[C@H](OCCN(C)C)CC[C@@H]32)c(C)[nH]1 the screen gave 10.66%. CS(=O)(=O)N1CC2(CCN(C3COC3)C2)Cc2ccccc21 (stereo not shown) gave 6.857%.

Result for O=C1C(Nc2ccc3nccnc3n2)CCN1c1ccccc1 (stereo not shown) was 8.011%. With CCO[C@H]1C[C@@H](O)C12CCN(S(=O)(=O)c1ccccc1OC)CC2 the screen gave 9.581%. Result for Cc1ncccc1NC(=O)C1=NOC2(CCN(Cc3nccs3)C2)C1 (stereo not shown) was 15.88%. Result for COc1cc(N2CCC(c3nccn3Cc3cccnc3)CC2)ncn1 was 4.57%. CC(C)N1CC(C(=O)NCc2ccnc(-n3cccn3)c2)CC1=O (stereo not shown) gave 6.748%. CC(NCc1cnc(C2CCC2)s1)c1ccccc1-n1cccn1 (stereo not shown) read 9.774%. COc1ccc(-c2n[nH]cc2CN(C)Cc2nnc(C)o2)c(F)c1 read 8.059%.

O=C(NC[C@]12COC[C@H]1CN(Cc1cccnc1)C2)c1ccno1 gave 10.1%. COc1ccccc1CN1CCCC(Cc2nccnc2N)C1 (stereo not shown) gave 10.5%. Result for Cc1c[nH]nc1C1CCN(C(=O)C2CCOCC2)C1 (stereo not shown) was 5.063%. For O=C(NCc1ccncc1)c1ccc(Cl)cc1F the result was 9.399%. With CCCN(CC(=O)NC)C(=O)c1ccc(-c2nc(C)cs2)cc1 the screen gave 20.95%. Cc1cc2[nH]c(=O)c(=O)[nH]c2cc1S(=O)(=O)NC1CCCCC1 gave -5.077%. CN(Cc1cccs1)C(=O)CN1CCCC1Cn1cncn1 (stereo not shown) read 5.512%.

With O=C(c1ccncc1)N1CCCC1c1cccc(Br)c1 (stereo not shown) the screen gave 1.12%. Cc1cc(NC(=O)N(C)CCN2CCN(c3ccccc3)CC2)on1 read 15.22%. For CCc1c(C)nc2cc(C3CCN(CCc4ccccc4)C3)nn2c1O (stereo not shown) the result was 16.67%. Result for CC(=O)N1CCC(C(=O)N2CCCC(Cc3ccccn3)C2)CC1 (stereo not shown) was 14.15%. For CCn1nccc1CN(C)C(=O)Cn1nc(C)cc1C the result was 1.869%. CSCC(=O)N1CCCN(Cc2cscn2)CC1 read 8.947%. Result for CC(=O)Nc1ccc(SCC(O)COCc2ccc3c(c2)OCO3)cc1 (stereo not shown) was 6.469%.

Cn1cc(N2C(=O)CC[C@@H]3[C@H]2CCN3Cc2nccs2)cn1 read 7.397%. O=C(Cc1cccs1)N1C[C@@H]2OCCN(CC3CCCO3)[C@@H]2C1 (stereo partly shown) gave 11.5%. With Cc1ccc2nc(CN3CCN(C4CCCC4)C(=O)C3)cc(O)c2c1 the screen gave 5.928%. CCCS(=O)(=O)CC(=O)Nc1ccsc1 gave 19.03%. Result for Cc1[nH]c2c(F)cccc2c1CC(=O)N1CCCC(N)CC1 (stereo not shown) was 7.035%. Cc1nnc(C(C)NCC2(c3c(F)cccc3F)CCCC2)o1 (stereo not shown) gave 14.13%. Result for NC(=O)c1cc(C2CCCN(CCOc3ccc(F)cc3)C2)n[nH]1 (stereo not shown) was 17.21%.

Cc1cc(C(=O)N2CCO[C@H]3[C@H](Oc4ccccn4)CC[C@@H]32)c(C)[nH]1 gave 10.44%. CC(C)Oc1ccc(CN)c(C(F)(F)F)c1 gave 4.7%. For CS(=O)(=O)NC1CCN(CCOCc2ccccc2)CC1 the result was 17.71%. Result for OC(CN1CCN(CCOCC(F)(F)F)CC1)c1ccccc1 (stereo not shown) was 7.614%. For CCn1nc(C)c(CCNC(=O)C2CCCN(C3CCCC3)C2)c1C (stereo not shown) the result was 5.177%. O=C(c1c[nH]cn1)N1CCC(F)(F)C2(CCN(c3ccccn3)C2)C1 (stereo not shown) gave 14.89%. With Cc1ccc(-c2nc(C(=O)N(C)C3CCN(C)CC3)cs2)c(C)c1 the screen gave 6.032%.

With Cc1csc(C(C#N)C(=O)NCc2cccnc2)n1 (stereo not shown) the screen gave 13.04%. With CCNc1nc(C)c(C(=O)N2CCC(C(O)Cc3ccccc3)CC2)s1 (stereo not shown) the screen gave 15.4%. With O=C(CCC(=O)N1CCc2ccccc2C1)c1cccs1 the screen gave 5.16%. For COc1ccc(Cl)cc1C(=O)NC(CC(=O)O)c1cccs1 (stereo not shown) the result was 12.89%. For CC(O)CN1CCC(CNCCOCC(F)(F)F)CC1 (stereo not shown) the result was 10.48%. O=C(NCCO)c1coc(CN2CCN(c3ccccc3F)CC2)n1 gave 16.42%. Cc1ccccc1CN(C)C(=O)CN1CCCC(Cn2cncn2)C1 (stereo not shown) read 21.59%.

Result for CCOc1ccc(CC(CNC(=O)c2ccco2)C(N)=O)cc1 (stereo not shown) was 9.966%. For CC(C)c1nc(C2CCCN(c3nccc(N4CCCC4)n3)C2)no1 (stereo not shown) the result was 7.692%. CN(C)c1cc2c(nn1)CCN(C(=O)c1ccc(-n3cccn3)nc1)C2 gave 16.1%. COCc1noc(-c2nn(-c3ccccc3F)c3c2CCC3)n1 gave 16.32%.

The last 6 entries again:

With O=C(NCCO)c1coc(CN2CCN(c3ccccc3F)CC2)n1 the screen gave 16.42%.
With Cc1ccccc1CN(C)C(=O)CN1CCCC(Cn2cncn2)C1 (stereo not shown) the screen gave 21.59%.
With CCOc1ccc(CC(CNC(=O)c2ccco2)C(N)=O)cc1 (stereo not shown) the screen gave 9.966%.
With CC(C)c1nc(C2CCCN(c3nccc(N4CCCC4)n3)C2)no1 (stereo not shown) the screen gave 7.692%.
With CN(C)c1cc2c(nn1)CCN(C(=O)c1ccc(-n3cccn3)nc1)C2 the screen gave 16.1%.
With COCc1noc(-c2nn(-c3ccccc3F)c3c2CCC3)n1 the screen gave 16.32%.